Values from PubChem BioAssay AID504786 (Drosophila RNAi Screening Center, 2011)
Purpose: 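Positive regulators of HIF-driven reporter output in Drosophila cells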 (primary screen). Cells: Drosophila S2 cells with a stable HIF luciferase reporter. Knock-down reagent: long dsRNA against Drosophila genes, about 0.2 µg dsRNA per well of a 384-well plate. Time to read-out: three days of knock-down, then 20 h of DFO before reading. Conditions: desferrioxamine (DFO) at 100 µM, an iron chelator that mimics hypoxia, for 20 h. Read-out: 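HIF reporter luminescence in cells given 100 µM DFO for 20 h, using the mouse ldh-a hypoxia-response element, scored as per-plate z-scores; higher means greater loss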. Scale: z-score: higher = stronger loss of HIF reporter signal.
In all, the deposit lists about 21,000 reagents; shown is an unselected part of those with a known target gene and a result. 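Primary screen; positive scores mean lost reporter signal, so the sign may be inverted from the usual convention.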 A plus sign joins genes that one reagent is predicted to hit. Not all columns of the deposit are shown.

z-score, replicate 1 | predicted target | amplicon
0.5 | CG5357 (retired record) | DRSC04497
-0.2 | CG13321 | DRSC06358
-0.4 | RYa-R | DRSC16757
1.2 | CSN8 | DRSC02257
-0.1 | Yod1 | DRSC10433
-0.3 | MP1 | DRSC12124
9.3 | RpL21 | DRSC03704
9.3 | cyp33 | DRSC07600
-0.2 | tpr | DRSC04468
-0.2 | trsn | DRSC06078
-0.2 | Sptz | DRSC15758
-0.2 | CG1582 | DRSC19732
-0.1 | Nepl8 | DRSC02759
-0.1 | bw | DRSC04005
-0.2 | bw | DRSC04677
-0.3 | PIG-Wb | DRSC08526
-0.3 | Aasdh | DRSC03467
-0.3 | CG8389 | DRSC07158
1.6 | Polr3F | DRSC15785
1.2 | eRF1 | DRSC11779
-0.2 | Grik | DRSC15846
0.1 | Grik | DRSC15847
-0.2 | CG11929 | DRSC00339
0.4 | CG17233 | DRSC10259
-0.3 | CG4951 | DRSC15682
0 | Jupiter | DRSC15204
-0.4 | Jupiter | DRSC15205
-0.3 | Jupiter | DRSC15389
-0.2 | CG31798 | DRSC01702
0.3 | CCT2 | DRSC18415
0.7 | S6k | DRSC11276
-0.4 | asl | DRSC12319
1.4 | CG3918 | DRSC18331
-0.4 | Vajk3 | DRSC01883
-0.2 | CG18508 | DRSC18155
-0.3 | mgl | DRSC17800
-0.4 | mgl | DRSC17823
-0.5 | mgl | DRSC17859
-0.4 | mgl | DRSC18004
-0.3 | CG14983 | DRSC08441
-0.3 | CG2211 | DRSC08559
-0.2 | CG13670 | DRSC10029
-0.1 | CG30334 | DRSC05345
-0.3 | Su(dx) | DRSC00791
-0.3 | Eig71Ec | DRSC11150
0.3 | Cdc23 | DRSC02708
-0.2 | CG7878 | DRSC16330
-0.3 | CG6420 | DRSC16035
-0.2 | Ucp4B | DRSC02665
-0.4 | CG2962 | DRSC18247
1.3 | par-1 | DRSC05792
-0.1 | par-1 | DRSC06098
0 | par-1 | DRSC06616
1.5 | par-1 | DRSC07660
-0.1 | par-1 | DRSC07661
-0.3 | c12.2 | DRSC18751
-0.2 | CG13202 | DRSC06326
-0.2 | CG10265 | DRSC05986
-0.3 | Ltn1 | DRSC11056
-0.2 | Ltn1 | DRSC11058
-0.4 | nAChRalpha7 | DRSC20078
-0.3 | nAChRalpha7 | DRSC20081
-0.1 | CG16719 | DRSC10222
-0.3 | CG17375 | DRSC02614
-0.3 | Fad2 | DRSC11165
0 | Mco3 | DRSC15926
-0.4 | Vps8 | DRSC09705
0.3 | CG33704 | DRSC03838
-0.4 | neur | DRSC17013
-0.2 | Ugt35C1 | DRSC16080
-0.2 | CG17328 | DRSC01927
-0.2 | nAChRalpha2 | DRSC17009
-0.3 | slif | DRSC11635
-0.5 | Rlip | DRSC16828
-0.2 | fy | DRSC03533
-0.2 | CG34188 | DRSC05549
-0.2 | scpr-A + scpr-C + scpr-B | DRSC15715
-0.2 | CG31867 | DRSC03338
0 | CG42457 (retired record) + cpo | DRSC13273
2.8 | CG42457 (retired record) + cpo | DRSC14503
2 | CG42457 (retired record) + cpo | DRSC15327
-1 | CG42457 (retired record) + cpo | DRSC16926
-0.3 | Reepl1 | DRSC19418
0.4 | mts | DRSC03574
6.2 | Prosbeta5 | DRSC07517
-0.4 | Wdr92 | DRSC10187
-0.2 | CR12628 + Mgstl | DRSC03702
-0.3 | CR12628 + Mgstl | DRSC20568
0.5 | SF1 | DRSC16844
-0.2 | NiPp1 | DRSC07307
0.1 | CG7990 | DRSC19296
2.1 | CG7990 | DRSC20069
-0.2 | sdk | DRSC18831
-0.3 | CG32050 (retired record) | DRSC10173
-0.3 | Cpr64Ac | DRSC08462
-0.5 | Or65b | DRSC08809
-0.5 | seq | DRSC06863
1.6 | mam | DRSC05468
-0.4 | mam | DRSC07648
-0.2 | CG10814 | DRSC06004
-0.3 | CG15879 | DRSC08487
-0.2 | LManVI | DRSC03224
-0.1 | CG33096 | DRSC14440
-0.3 | Vps53 | DRSC00595
0 | Suv3 | DRSC12335
-0.1 | epsilonTry | DRSC07611

As entered above.
CG13321 [DRSC06358], z-score, replicate 1 → -0.2
Entry of par-1 [DRSC07660] in “z-score, replicate 1”: 1.5
Under “z-score, replicate 1”, S6k [DRSC11276] shows 0.7
Under “z-score, replicate 1”, CSN8 [DRSC02257] has 1.2
For “z-score, replicate 1”, Vps53 [DRSC00595] has -0.3
For “z-score, replicate 1”, CG2211 [DRSC08559] is entered as -0.3
